No constants are given. Whether binding was seen depends on the method and setting. Binding seen in cells or lysates may run through a third protein. A yes stands for co-enrichment or nearness to the bait. Other partners may have been found.
Target: T1, N-biotin wild type CARP-1 (614–638) peptide (human)
T1 sequence (peptide, biotin on the N-terminus): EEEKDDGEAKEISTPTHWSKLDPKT
Assay: cross-linking + affinity purification with mass spectrometry; K-CLASP: ADR-treated HeLa lysate (500 µg) with N-biotin CARP-1 peptide (1 mM) and ATP-ArN3 (5 mM), 31°C, 2 h, UV 365 nm; streptavidin resin; LC-MS/MS; hits enriched ≥1.2-fold over the S626,T627/AA peptide; only the target purified

B1: Mitogen-activated protein kinase 12/p38γ (protein, UniProt P53778 1-367)
chain: MSSPPPARSGFYRQEVTKTAWEVRAVYRDLQPVGSGAYGAVCSAVDGRTGAKVAIKKLYRPFQSELFAKRAYRELRLLKHMRHENVIGLLDVFTPDETLDDFTDFYLVMPFMGTDLGKLMKHEKLGEDRIQFLVYQMLKGLRYIHAAGIIHRDLKPGNLAVNEDCELKILDFGLARQADSEMTGYVVTRWYRAPEVILNWMRYTQTVDIWSVGCIMAEMITGKTLFKGSDHLDQLKEIMKVTGTPPAEFVQRLQSDEAKNYMKGLPELEKKDFASILTNASPLAVNLLEKMLVLDAEQRVTAGEALAHPYFESLHDTEDEPQVQKYDDSFDDVDRTLDEWKRVTYKEVLSFKPPRQLGARVSKETPL
In the case of B1, the binding is reported as “binds”.

From article PMC11096501
